Measured values: publication PMC2603313, “Direct Inhibition of GSK3β by the Phosphorylated Cytoplasmic Domain of LRP6 in Wnt/β-Catenin Signaling” (PLoS ONE, 2008)
Results are given in words; binding and its absence hold for the method and conditions named. Where a sequence is shown, tags or fusion partners need not be part of it.

Chains of the proteins cited; added tags and fusions are not shown. Lines headed by an entry give the natural chain unless they say otherwise; changes in a name come on top. Residues count along the entry.
UniProt O75581: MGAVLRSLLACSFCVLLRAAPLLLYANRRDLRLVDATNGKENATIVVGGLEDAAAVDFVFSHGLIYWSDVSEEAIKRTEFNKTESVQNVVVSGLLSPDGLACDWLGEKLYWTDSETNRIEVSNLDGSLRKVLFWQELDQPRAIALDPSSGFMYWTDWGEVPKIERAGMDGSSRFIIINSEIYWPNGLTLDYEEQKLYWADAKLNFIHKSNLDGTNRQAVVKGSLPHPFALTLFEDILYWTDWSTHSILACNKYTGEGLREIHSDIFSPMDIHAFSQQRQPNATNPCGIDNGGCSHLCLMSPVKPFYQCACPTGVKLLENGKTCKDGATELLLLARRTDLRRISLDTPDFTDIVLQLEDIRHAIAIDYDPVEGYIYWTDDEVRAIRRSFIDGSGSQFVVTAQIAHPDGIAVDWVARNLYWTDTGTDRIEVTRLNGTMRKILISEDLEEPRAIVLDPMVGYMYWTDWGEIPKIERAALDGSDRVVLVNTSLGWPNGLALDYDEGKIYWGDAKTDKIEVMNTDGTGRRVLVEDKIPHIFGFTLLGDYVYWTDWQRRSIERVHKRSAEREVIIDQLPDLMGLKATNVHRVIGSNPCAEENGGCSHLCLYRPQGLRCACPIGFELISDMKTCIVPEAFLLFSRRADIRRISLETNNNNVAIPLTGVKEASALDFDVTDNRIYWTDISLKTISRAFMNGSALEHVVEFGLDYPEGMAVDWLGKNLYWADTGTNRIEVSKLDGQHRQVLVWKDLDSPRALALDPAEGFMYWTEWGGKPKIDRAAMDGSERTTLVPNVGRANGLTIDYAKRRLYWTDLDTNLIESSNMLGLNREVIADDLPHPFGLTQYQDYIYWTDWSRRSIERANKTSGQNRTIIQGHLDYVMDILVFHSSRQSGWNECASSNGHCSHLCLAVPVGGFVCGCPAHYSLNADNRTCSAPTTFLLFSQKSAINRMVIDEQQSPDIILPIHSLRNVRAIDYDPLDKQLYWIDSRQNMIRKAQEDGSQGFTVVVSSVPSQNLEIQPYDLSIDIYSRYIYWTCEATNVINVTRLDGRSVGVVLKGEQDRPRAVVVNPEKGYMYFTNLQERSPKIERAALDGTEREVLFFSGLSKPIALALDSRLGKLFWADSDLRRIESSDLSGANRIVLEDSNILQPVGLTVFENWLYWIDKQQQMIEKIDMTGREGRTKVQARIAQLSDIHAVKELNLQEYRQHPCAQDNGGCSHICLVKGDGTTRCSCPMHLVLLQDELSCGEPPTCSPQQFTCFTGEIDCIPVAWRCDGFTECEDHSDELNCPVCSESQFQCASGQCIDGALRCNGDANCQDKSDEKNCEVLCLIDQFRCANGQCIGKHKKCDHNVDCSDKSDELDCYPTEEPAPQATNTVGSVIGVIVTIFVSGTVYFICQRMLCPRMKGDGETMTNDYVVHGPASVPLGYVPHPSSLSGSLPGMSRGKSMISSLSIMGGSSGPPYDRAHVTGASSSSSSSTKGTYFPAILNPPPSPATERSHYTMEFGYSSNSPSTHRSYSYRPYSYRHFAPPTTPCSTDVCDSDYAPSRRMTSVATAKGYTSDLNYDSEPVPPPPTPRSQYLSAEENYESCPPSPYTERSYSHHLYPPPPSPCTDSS
UniProt Q9WV60, residues 27-393: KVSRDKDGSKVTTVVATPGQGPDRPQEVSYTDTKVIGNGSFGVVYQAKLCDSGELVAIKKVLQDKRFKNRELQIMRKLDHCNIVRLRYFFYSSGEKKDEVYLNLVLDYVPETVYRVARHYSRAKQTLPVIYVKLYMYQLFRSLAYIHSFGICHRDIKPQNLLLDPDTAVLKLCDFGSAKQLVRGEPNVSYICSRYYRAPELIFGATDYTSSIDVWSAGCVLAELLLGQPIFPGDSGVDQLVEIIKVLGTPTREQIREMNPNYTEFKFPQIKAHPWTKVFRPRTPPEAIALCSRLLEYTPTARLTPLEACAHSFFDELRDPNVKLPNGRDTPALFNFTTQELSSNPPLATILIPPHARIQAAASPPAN

Columns and labels:
[1] = molecular target: T1, GST-fused LRP6 PPPAPxS (residues 1485–1497 of human LRP6, S1490A), treated with GSK3β and CK1 (human) (UniProt O75581); assay: far-Western, overlay or dot blot; GST-fused LRP6 fragments (with or without prior treatment with GSK3β and CK1) run on SDS-PAGE and transferred to PVDF; membrane incubated 3 h with 1 µg/ml GSK3β in 5% skim milk in TBST (20 mM Tris pH 7.6, 137 mM NaCl, 0.05% Tween 20); bound GSK3β detected with anti-GSK3β antibody; both purified
T1 sequence: LNPPPAPATERSH

[2] = molecular target: T2, GST-fused LRP6 PPPSPxS (residues 1485–1497 of human LRP6), treated with GSK3β and CK1 (human) (UniProt O75581); assay: as above
T2 sequence: LNPPPSPATERSH

binding [1]: no binding (tested: 1 µg/ml of GSK3β)
binding [2]: no binding (tested: 1 µg/ml of GSK3β)
Substance: catalytic domain of mouse GSK3β (residues 27–393) (from UniProt Q9WV60 27-393) (enzyme)
